Measurements published in patent US20260079169A1, “VOLATILE ORGANIC COMPOUNDS AS MARKERS FOR CELLULAR COMMUNICATION” (Technion Research and Development Foundation Limited, priority 2020, published 2026).

Key:
[1] = tested on: different-cell pairs of BEAS-2B, A549, H1299, H1975 without physical contact under a mutual headspace; experiment: VOCs headspace analysis (ITEX GC-MS) of different-cell pair co-culture headspace groups (Format-3), bulk cell samples; assay type: cell-based, human; conditions: bulk 1 × 10^4 cell
[2] = tested on: A549, H1299, H1975 human lung cancer lines and BEAS-2B normal cell line, each cultured alone; experiment: VOCs headspace analysis (ITEX GC-MS) of mono-culture groups (Format-1), bulk cell samples 1×10^4 cells; assay type: cell-based; conditions: bulk 1 × 10^4 cell

CC(=O)CCC=C(C)C [VOC86]
VOC level in headspace, area under curve (AUC) normalized by STD AUC ([1]; A + B (BEAS-2B + A549)): 0 | VOC level in headspace, area under curve (AUC) normalized by STD AUC ([1]; A + C (BEAS-2B + H1299)): 0 | VOC level in headspace, area under curve (AUC) normalized by STD AUC ([1]; A + D (BEAS-2B + H1975)): 5.903 | VOC level in headspace, area under curve (AUC) normalized by STD AUC ([1]; B + C (A549 + H1299)): 0 | VOC level in headspace, area under curve (AUC) normalized by STD AUC ([1]; B + D (A549 + H1975)): 8.078 | VOC level in headspace, area under curve (AUC) normalized by STD AUC ([1]; C + D (H1299 + H1975)): 2.219 | VOC level in headspace, area under curve (AUC) normalized by STD AUC ([2]; A (BEAS-2B) mono-culture): 0 | VOC level in headspace, area under curve (AUC) normalized by STD AUC ([2]; B (A549) mono-culture): 0 | VOC level in headspace, area under curve (AUC) normalized by STD AUC ([2]; C (H1299) mono-culture): 0 | VOC level in headspace, area under curve (AUC) normalized by STD AUC ([2]; D (H1975) mono-culture): 4.637

C=C(C)CCO [VOC87]
VOC level in headspace, area under curve (AUC) normalized by STD AUC ([1]; A + B (BEAS-2B + A549)): 0 | VOC level in headspace, area under curve (AUC) normalized by STD AUC ([1]; A + C (BEAS-2B + H1299)): 6.943 | VOC level in headspace, area under curve (AUC) normalized by STD AUC ([1]; A + D (BEAS-2B + H1975)): 6.777 | VOC level in headspace, area under curve (AUC) normalized by STD AUC ([1]; B + C (A549 + H1299)): 4.197 | VOC level in headspace, area under curve (AUC) normalized by STD AUC ([1]; B + D (A549 + H1975)): 4.222 | VOC level in headspace, area under curve (AUC) normalized by STD AUC ([1]; C + D (H1299 + H1975)): 2.7 | VOC level in headspace, area under curve (AUC) normalized by STD AUC ([2]; A (BEAS-2B) mono-culture): 0 | VOC level in headspace, area under curve (AUC) normalized by STD AUC ([2]; B (A549) mono-culture): 0 | VOC level in headspace, area under curve (AUC) normalized by STD AUC ([2]; C (H1299) mono-culture): 4.7815 | VOC level in headspace, area under curve (AUC) normalized by STD AUC ([2]; D (H1975) mono-culture): 4.854

CCCCC(O)CCC (stereo not drawn) [VOC88]
VOC level in headspace, area under curve (AUC) normalized by STD AUC ([1]; A + B (BEAS-2B + A549)): 3.088 | VOC level in headspace, area under curve (AUC) normalized by STD AUC ([1]; A + C (BEAS-2B + H1299)): 0 | VOC level in headspace, area under curve (AUC) normalized by STD AUC ([1]; A + D (BEAS-2B + H1975)): 0 | VOC level in headspace, area under curve (AUC) normalized by STD AUC ([1]; B + C (A549 + H1299)): 1.643 | VOC level in headspace, area under curve (AUC) normalized by STD AUC ([1]; B + D (A549 + H1975)): 1.099 | VOC level in headspace, area under curve (AUC) normalized by STD AUC ([1]; C + D (H1299 + H1975)): 0 | VOC level in headspace, area under curve (AUC) normalized by STD AUC ([2]; A (BEAS-2B) mono-culture): 0 | VOC level in headspace, area under curve (AUC) normalized by STD AUC ([2]; B (A549) mono-culture): 3.18 | VOC level in headspace, area under curve (AUC) normalized by STD AUC ([2]; C (H1299) mono-culture): 0 | VOC level in headspace, area under curve (AUC) normalized by STD AUC ([2]; D (H1975) mono-culture): 0

CC(=O)c1ccc(C(C)=O)cc1 [VOC89]
VOC level in headspace, area under curve (AUC) normalized by STD AUC ([1]; A + B (BEAS-2B + A549)): 0 | VOC level in headspace, area under curve (AUC) normalized by STD AUC ([1]; A + C (BEAS-2B + H1299)): 0 | VOC level in headspace, area under curve (AUC) normalized by STD AUC ([1]; A + D (BEAS-2B + H1975)): 4.323 | VOC level in headspace, area under curve (AUC) normalized by STD AUC ([1]; B + C (A549 + H1299)): 0 | VOC level in headspace, area under curve (AUC) normalized by STD AUC ([1]; B + D (A549 + H1975)): 7.354 | VOC level in headspace, area under curve (AUC) normalized by STD AUC ([1]; C + D (H1299 + H1975)): 0 | VOC level in headspace, area under curve (AUC) normalized by STD AUC ([2]; A (BEAS-2B) mono-culture): 0 | VOC level in headspace, area under curve (AUC) normalized by STD AUC ([2]; B (A549) mono-culture): 0 | VOC level in headspace, area under curve (AUC) normalized by STD AUC ([2]; C (H1299) mono-culture): 0 | VOC level in headspace, area under curve (AUC) normalized by STD AUC ([2]; D (H1975) mono-culture): 9.8462

Cc1cc(C)nc(C)c1 [VOC90]
VOC level in headspace, area under curve (AUC) normalized by STD AUC ([1]; A + B (BEAS-2B + A549)): 0 | VOC level in headspace, area under curve (AUC) normalized by STD AUC ([1]; A + C (BEAS-2B + H1299)): 0.2737 | VOC level in headspace, area under curve (AUC) normalized by STD AUC ([1]; A + D (BEAS-2B + H1975)): 5.643 | VOC level in headspace, area under curve (AUC) normalized by STD AUC ([1]; B + C (A549 + H1299)): 2.014 | VOC level in headspace, area under curve (AUC) normalized by STD AUC ([1]; B + D (A549 + H1975)): 3.995 | VOC level in headspace, area under curve (AUC) normalized by STD AUC ([1]; C + D (H1299 + H1975)): 1.619 | VOC level in headspace, area under curve (AUC) normalized by STD AUC ([2]; A (BEAS-2B) mono-culture): 0 | VOC level in headspace, area under curve (AUC) normalized by STD AUC ([2]; B (A549) mono-culture): 0 | VOC level in headspace, area under curve (AUC) normalized by STD AUC ([2]; C (H1299) mono-culture): 2.6707 | VOC level in headspace, area under curve (AUC) normalized by STD AUC ([2]; D (H1975) mono-culture): 5.566

CCCCCC(O)CC (stereo not drawn) [VOC91]
VOC level in headspace, area under curve (AUC) normalized by STD AUC ([1]; A + B (BEAS-2B + A549)): 0 | VOC level in headspace, area under curve (AUC) normalized by STD AUC ([1]; A + C (BEAS-2B + H1299)): 0 | VOC level in headspace, area under curve (AUC) normalized by STD AUC ([1]; A + D (BEAS-2B + H1975)): 5.868 | VOC level in headspace, area under curve (AUC) normalized by STD AUC ([1]; B + C (A549 + H1299)): 0 | VOC level in headspace, area under curve (AUC) normalized by STD AUC ([1]; B + D (A549 + H1975)): 7.186 | VOC level in headspace, area under curve (AUC) normalized by STD AUC ([1]; C + D (H1299 + H1975)): 2.36 | VOC level in headspace, area under curve (AUC) normalized by STD AUC ([2]; A (BEAS-2B) mono-culture): 0 | VOC level in headspace, area under curve (AUC) normalized by STD AUC ([2]; B (A549) mono-culture): 0 | VOC level in headspace, area under curve (AUC) normalized by STD AUC ([2]; C (H1299) mono-culture): 0 | VOC level in headspace, area under curve (AUC) normalized by STD AUC ([2]; D (H1975) mono-culture): 7.744
